According to publication doi:10.1101/2025.09.16.676457 (bioRxiv, 2025):
No constants are given. Whether binding was seen depends on the method and setting. In cells and extracts the contact can be indirect. Binding calls can cover weak binding; strength is not graded here.

Amino acid sequences for entries named in this document (tags omitted).
UniProt P32121: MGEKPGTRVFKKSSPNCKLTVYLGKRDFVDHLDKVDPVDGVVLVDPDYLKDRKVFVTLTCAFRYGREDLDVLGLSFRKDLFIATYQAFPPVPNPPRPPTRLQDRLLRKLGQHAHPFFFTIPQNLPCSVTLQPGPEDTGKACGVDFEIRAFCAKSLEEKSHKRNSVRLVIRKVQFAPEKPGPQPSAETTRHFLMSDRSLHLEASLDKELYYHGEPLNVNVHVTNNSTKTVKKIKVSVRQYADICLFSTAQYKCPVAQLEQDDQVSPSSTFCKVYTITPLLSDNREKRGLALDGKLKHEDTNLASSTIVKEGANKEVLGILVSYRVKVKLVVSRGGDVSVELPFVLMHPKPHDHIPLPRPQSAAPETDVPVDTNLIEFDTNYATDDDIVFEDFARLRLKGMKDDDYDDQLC

Molecular target: Lc-GPR25-LgBiT (Latimeria chalumnae (coelacanth)) (UniProt H3AQL3)
Assay: split reporter

binding: binds
Substance: SmBiT-ARRB2 (from UniProt P32121 1-409)
